Results deposited as PubChem BioAssay AID504774 (Drosophila RNAi Screening Center, 2011)

Test: 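Genes required for cells to withstand methyl methanesulphonate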 (primary screen)
System: Drosophila Kc167 cells
Reagents: long dsRNA against Drosophila genes, about 0.25 µg dsRNA per well
Timing: about 6 days: 3 days knock-down, then 3 days with or without MMS
Treatment: methyl methanesulphonate 0.004% (w/v) for 3 days after knock-down
Detection: 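ATP-dependent luminescence as a measure of live cells in MMS-exposed wells, quantile normalised within each plate, with replicate values also given as a mean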
Direction: mean viability with MMS and viability with MMS: higher = more surviving cells after MMS
The deposit covers about 23,000 reagents; shown is a random part of those that have a named target and a result. 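Values are quantile-normalised luminescence on an arbitrary scale; higher means more cells surviving MMS.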 Reagents against one gene are numbered here. Names joined by + are all predicted targets of the reagent.

target	reagent no.	mean viability with MMS	viability with MMS, replicate 1	viability with MMS, replicate 2
Ir67c	1	3.74e6	4.19e6	4.20e6
Afg3l2	1	3.54e6	3.98e6	4.04e6
RpL17	1	2.58e6	3.12e6	2.95e6
Gga	1	3.51e6	4.09e6	3.87e6
Slip1	1	3.54e6	4.10e6	3.95e6
unc-4	1	3.52e6	3.84e6	4.13e6
unc-4	2	3.76e6	4.24e6	4.17e6
NUCB1	1	3.44e6	3.91e6	3.93e6
lawc (retired record)	1	2.83e6	3.67e6	3.66e6
lawc (retired record)	2	3.34e6	3.91e6	3.69e6
CG43861 + CG12508 (retired record)	1	3.72e6	4.20e6	4.19e6
CG11200	1	3.48e6	3.94e6	3.93e6
Tom70	1	3.52e6	3.95e6	3.91e6
Gr64d + Gr64e	1	3.53e6	3.99e6	3.93e6
Dic4	1	3.34e6	3.79e6	3.73e6
CG9231	1	3.51e6	3.92e6	4.03e6
Rab30	1	3.57e6	3.95e6	4.13e6
ase	1	3.37e6	3.75e6	3.92e6
CG12546	1	3.36e6	3.77e6	3.80e6
CG11899	1	3.48e6	3.95e6	3.90e6
fok	1	3.42e6	3.73e6	3.98e6
exu	1	3.50e6	3.89e6	4.03e6
kek6	1	3.50e6	3.97e6	3.98e6
sosie	1	3.58e6	3.96e6	4.16e6
sosie	2	3.66e6	4.21e6	4.05e6
beta-Man	1	3.67e6	4.07e6	4.21e6
beta-Man	2	3.62e6	4.04e6	4.16e6
CG33494	1	3.64e6	4.07e6	4.16e6

4 entries from above, showing only “viability with MMS, replicate 2”:
Slip1: 3.95e6
unc-4 #1: 4.13e6
unc-4 #2: 4.17e6
NUCB1: 3.93e6

Additional entries:
target	reagent no.	mean viability with MMS	viability with MMS, replicate 1	viability with MMS, replicate 2
NT5E-2	1	3.59e6	4.18e6	3.97e6
CG17239	1	3.50e6	4.01e6	3.92e6
Su(fu)	1	3.57e6	4.03e6	4.09e6
CG10280	1	3.58e6	4.13e6	4.00e6
CG17294	1	3.48e6	4.08e6	3.77e6
wgn	1	3.59e6	4.09e6	4.03e6
ey	1	3.51e6	4.07e6	3.90e6
CG3502 + CG9863	1	3.68e6	4.14e6	4.19e6
CG30392	1	3.50e6	3.97e6	3.98e6
TAF1C-like	1	3.68e6	3.94e6	4.22e6
CG3847	1	3.71e6	4.09e6	4.22e6
CG3847	2	3.24e6	3.79e6	3.19e6
bchs	1	3.45e6	3.96e6	3.85e6
ths	1	2.63e6	3.36e6	2.99e6
ths	2	3.43e6	3.91e6	3.91e6
Slob	1	3.52e6	4.10e6	3.88e6
Shark	1	3.56e6	3.97e6	4.10e6
CG42404	1	3.39e6	3.88e6	3.77e6
